Source: PMC4974620
No constants are given. Whether binding was seen depends on the method and setting. A result given as binding can be weak or reduced; the word gives no strength.

Target: T1, yeast H/KDEL receptor Erd2p (S. cerevisiae) (UniProt P18414)
T1 sequence: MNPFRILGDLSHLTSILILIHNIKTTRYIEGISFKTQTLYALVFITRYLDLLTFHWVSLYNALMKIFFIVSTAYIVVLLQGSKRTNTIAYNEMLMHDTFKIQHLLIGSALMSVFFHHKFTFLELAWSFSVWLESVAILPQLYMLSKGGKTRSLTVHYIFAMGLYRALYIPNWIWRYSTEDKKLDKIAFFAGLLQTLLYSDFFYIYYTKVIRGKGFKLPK
Assay: depletion of toxin from the supernatant by spheroplasts (residual toxin activity on methylene blue agar); yeast spheroplasts (1 x 10^5 to 1 x 10^6 cells/ml; Δerd2, single copy ERD2 or multi copy pERD2) in McIlvaine buffer pH 4.7 with 0.8 M sorbitol, K28 toxin 1 μg/ml, 60 min at 4 °C; residual toxin activity in the cell free supernatant tested against the sensitive strain 192.2d

Question: With Yeast killer toxin K28 (complex) as the substance, how does the binding read?
Answer: binds
